The other results are listed elsewhere or left out.

Amino acid sequences for entries named in this document (tags omitted).
UniProt Q0JBA9, entry or part of it: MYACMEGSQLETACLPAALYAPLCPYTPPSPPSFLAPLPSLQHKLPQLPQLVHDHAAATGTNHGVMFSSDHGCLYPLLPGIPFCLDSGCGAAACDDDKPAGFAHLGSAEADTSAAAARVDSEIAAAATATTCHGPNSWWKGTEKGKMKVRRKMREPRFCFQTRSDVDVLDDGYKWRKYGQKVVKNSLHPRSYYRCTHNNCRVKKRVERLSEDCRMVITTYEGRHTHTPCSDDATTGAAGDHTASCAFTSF

In this assay the target is OsWRKY34 (Oryza sativa, UniProt Q0JBA9 1-250). Nature of the assay: protein-binding microarray (RPBM); PBS, 2% BSA, 51.3 ng/ul salmon testes DNA, 50 uM zinc acetate, 200 nM TF, 25 C, 1 h; high values mean tight binding. The settings on record: protein: recombinant; tags: N-terminal polyhistidine and DsRed monomer fusion (pET32a); label: CyDye5-dUTP incorporated in the synthesized complementary strand; 3' TTTTT single-stranded linker to array surface; dsDNA, one strand shown. Summed up: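 Using Ni–NTA, transcription factors fused N-terminally to polyhistidine and DsRed were purified after expression in E. coli BL21-CodonPlus. These were incubated at 200 nM with a blocked, double-stranded custom Agilent array for 1 h at 25 °C in a buffer containing 50 µM zinc acetate, and the array was washed. The binding signal is per-feature fluorescence intensity (arbitrary units) on an Axon 4000B scanner.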
As to “GGTATTGGACTATTGGTCCTTTTCCTTCACTTATCCGGTTCGGAGTCACCTAGTGCAG”, the binding signal was 8390 fluorescence intensity (a.u.).
In the case of “TTTCTCTTCTTTTTTCTTTATTCGCTAATTATTTGCGGGGCGGAGTCACCTAGTGCAG” it was 11900 fluorescence intensity (a.u.).
For the sequence “CTTCCGTCTCCATCTCCACCACCACCACCACCACGGCCACCGGAGTCACCTAGTGCAG”, the binding signal was 9520 fluorescence intensity (a.u.).
As for “ACGTACGTTACGTTTCTCCCATCCCACCCCATGTTCTTGCCGGAGTCACCTAGTGCAG”, the figure is 11400 fluorescence intensity (a.u.); as for “ACTCCAGCCGATTCTTACTCTGTTCTCAAATCGATCTCTGCGGAGTCACCTAGTGCAG”, 8490 fluorescence intensity (a.u.).
As for “CCAATTTCTACCTTTTGCATGATGCATCTATCGTGCATGCCGGAGTCACCTAGTGCAG”, the figure is 9320 fluorescence intensity (a.u.); as for “ATAGCTTTCGTGCTAGCTTCATCGATGTTACCCACCAAATCGGAGTCACCTAGTGCAG”, 9210 fluorescence intensity (a.u.); as for “TCCGTCTCTTTCTTATTAATTAATTTTCTATATCATATTTCGGAGTCACCTAGTGCAG”, 9530 fluorescence intensity (a.u.).
For the sequence “ATCGCTCGCCACGTGTCCACGCTCCACCCCAACCCCTCATCGGAGTCACCTAGTGCAG”, the binding signal is 8620 fluorescence intensity (a.u.).
For the sequence “TCTCTCTCTCTCTTGTCGCGATGGCGGCGGCGGCGATCGCCGGAGTCACCTAGTGCAG”, the binding signal is 8810 fluorescence intensity (a.u.).
Consider “GTATATATATGTCGTGGTTTGTTATGTCTGGGGTTGATCACGGAGTCACCTAGTGCAG”, for which the binding signal was 10100 fluorescence intensity (a.u.).
As for “GTGTGTGTGTGTGGACCAGGCGGCGCCCAATCGGCCATGCCGGAGTCACCTAGTGCAG”, the figure is 8290 fluorescence intensity (a.u.); as for “TGGATGTCGCCGTCGGCGGGGTGGTGGGATTTGGAACTGGCGGAGTCACCTAGTGCAG”, 12500 fluorescence intensity (a.u.).
As for “ACACAGCACATGTCACCGCCTCGTCAGACCGGGCCCACACCGGAGTCACCTAGTGCAG”, the figure is 9950 fluorescence intensity (a.u.).
In the case of “GGTTTGTGAATTTTTTAATATCTCTCTGTGTGTGTTTGTGCGGAGTCACCTAGTGCAG” it was 8480 fluorescence intensity (a.u.); in that of “TACCCCTCATGACTTTTTTGTGTCTTCTTCTATTGTTCATCGGAGTCACCTAGTGCAG”, 8290 fluorescence intensity (a.u.); in that of “TTTTTGGTGTGGTGTGGATCTCTCATAGGTAAACTTGTCCCGGAGTCACCTAGTGCAG”, 8480 fluorescence intensity (a.u.).
In the case of “GGTCCAAGTCAGCCTTCTTGCATTGGTCCAAGTCAGCCTTCGGAGTCACCTAGTGCAG”, the binding signal is 9120 fluorescence intensity (a.u.).
As for “TCCCATGTCTCCGCCGCCGCGTCACCGCCCAGCACGAACCCGGAGTCACCTAGTGCAG”, the figure is 11900 fluorescence intensity (a.u.); as for “GTTTATTTGGGTTCTCTTATGTGTTGGTGTGTCGATGACCCGGAGTCACCTAGTGCAG”, 8940 fluorescence intensity (a.u.).
As for “GTGCACTGGATTTCTAAGTTGAGGGGCGCGTTTTATCCGACGGAGTCACCTAGTGCAG”, the figure is 9050 fluorescence intensity (a.u.); as for “TTCCGCGGTAGGGGAGTGAAAGTTATGTGATTATGTTGTTCGGAGTCACCTAGTGCAG”, 8960 fluorescence intensity (a.u.); as for “ACCGACGCCTGCCTACCGCGATGCCACCCTTGCCTGCCGCCGGAGTCACCTAGTGCAG”, 10200 fluorescence intensity (a.u.).
As for “ACACTGAGCACCCTCGCAGGATTCCACGGTCAAATCTTGACGGAGTCACCTAGTGCAG”, the figure is 8260 fluorescence intensity (a.u.); as for “TATCTGAGCACTTAGAGGTGTAATATCCGCTTCATGTTTCCGGAGTCACCTAGTGCAG”, 8980 fluorescence intensity (a.u.); as for “ATTGTTCTCTAGCTAGATTTCCATGCACATTTCGATACATCGGAGTCACCTAGTGCAG”, 8360 fluorescence intensity (a.u.).
For the sequence “ATAGGTGCCGGTTCTATTTTGGTATAGGGGTCGGTTGTTTCGGAGTCACCTAGTGCAG”, the binding signal was 11700 fluorescence intensity (a.u.).
As for “CCTTGCCAGCTAGCTACTTCGTGTTTGGTACTACTGAAAACGGAGTCACCTAGTGCAG”, the figure is 8700 fluorescence intensity (a.u.); as for “CACTCCTTGTTTGGTAATTGCATATGATGCCTCTGATTGTCGGAGTCACCTAGTGCAG”, 8420 fluorescence intensity (a.u.); as for “AAATTGCTGAGACGCGATTACACCGACTCTGGTCGTCTCACGGAGTCACCTAGTGCAG”, 8700 fluorescence intensity (a.u.).
As for “GTTAGGGTTTTCTTTTGATTGTCAGGGTTTTCTTTTGATTCGGAGTCACCTAGTGCAG”, the binding signal is 13200 fluorescence intensity (a.u.).
For “ATTTTGTGTTCTCTATATTACCATATCTCTAGTCAATAATCGGAGTCACCTAGTGCAG”, the binding signal is 10900 fluorescence intensity (a.u.).
In the case of “CCGTATGCTCCGTATGTTCGAGGATCCCTTTCCGACCGCGCGGAGTCACCTAGTGCAG” it was 8920 fluorescence intensity (a.u.); in that of “GTTTAGTTTAGTTGATCTTTTGTACATATGCATACTGTGTCGGAGTCACCTAGTGCAG”, 10600 fluorescence intensity (a.u.).
As for “GTGCGCGCCTTATATTGTGGGATAGTGGGAGTATATTTTCCGGAGTCACCTAGTGCAG”, the figure is 13900 fluorescence intensity (a.u.); as for “GTGGTCGCATGGTACAATCTTTGAGTGATTTTTTTTCAACCGGAGTCACCTAGTGCAG”, 9490 fluorescence intensity (a.u.).
On to “GACAAACATCAACATGCACTCTACTTTATTTGCCAATAGGCGGAGTCACCTAGTGCAG”, for which the binding signal is 8360 fluorescence intensity (a.u.).
As for “GGCACAGAGGACCAGGAGGAGGTGCGGGAAGGGGCTGGCACGGAGTCACCTAGTGCAG”, the figure is 8380 fluorescence intensity (a.u.); as for “TATTTTAATTTTCGGAGCTTTCATTTCAAGCGCCTTTTTTCGGAGTCACCTAGTGCAG”, 8140 fluorescence intensity (a.u.); as for “TACCAGCAATAGCAACGTCGTCTCCGGCCGCTGCATGCCTCGGAGTCACCTAGTGCAG”, 8640 fluorescence intensity (a.u.).
In the case of “AGTAGTCCTTCAAGCTCCAATCATATACCCCTGATACTAACGGAGTCACCTAGTGCAG” it was 8300 fluorescence intensity (a.u.).
As for “TATCATATAACTTTTTTTTTTGCGGGGCATATCATATAACCGGAGTCACCTAGTGCAG”, the figure is 8440 fluorescence intensity (a.u.).
